Reference: the supplement of paper PMC11348887
Counter-ions that a name gives are not always drawn. The list shows a part of the results. Most values lie at the level of the controls, where differences are scatter.

Assays:
Settings in all cases: 5 µM; treatment: days 7-14 after plating, readout day 21
[1] = test system: hPSC-derived cortical neurons (WA09); test: nucleus area z-score vs screen plate; higher = larger nuclei (more mature)
[2] = test system: hPSC-derived cortical neurons (WA09); test: total neurite length per nucleus (MAP2) z-score; higher = more neurite growth
[3] = test system: hPSC-derived cortical neurons (WA09); test: nucleus roundness z-score vs screen plate; higher = rounder nuclei (more mature)
[4] = test system: hPSC-derived cortical neurons (WA09); test: KCl-induced FOS+/EGR-1+ double-positive nuclei fraction z-score (KCl minus unstimulated); higher = stronger activity-induced IEG response

Row | SMILES | nucleus area z-score [1] | total neurite length per nucleus (z-score) [2] | nucleus roundness z-score [3] | KCl-induced FOS+/EGR-1+ double-positive nuclei fraction z-score [4]
1 | COc1ccc(C2CNC(=O)C2)cc1OC1CCCC1 (configuration not stated) [Rolipram] | 0.0448 | -0.0605 | 0.308 | 0.844
2 | Cc1cc(NC(=O)Nc2ccc(N(C)C)cc2)c2cc(F)cc(F)c2n1 | 0.464 | -0.462 | -0.0294 | -0.387
3 | COC(=O)C1=C(C)NC(C)=C(C(=O)OCC(C)C)C1c1ccccc1[N+](=O)[O-] (configuration not stated) [Nisoldipine] | -1.8 | -1.3 | -0.387 | -0.0564
4 | COc1ccccc1OCC(O)COC(N)=O (configuration not stated) [Methocarbamol] | -0.787 | 0.0292 | 0.0647 | 1.8
5 | CC[C@@H](CO)NCCN[C@@H](CC)CO [Ethambutol HCl] | 1.44 | -1.09 | -0.47 | -0.455
6 | FC(F)(F)Oc1ccc2nc(-c3ccc(OCCOCCOc4ccc(-c5nc6ccc(OC(F)(F)F)cc6[nH]5)nc4)cn3)[nH]c2c1 | -4.84 | -1.4 | -0.682 | -1.34
7 | CN[C@H]1CN(c2ccc3c(=O)c(C(=O)O)cn(-c4nccs4)c3n2)C[C@@H]1OC [Voreloxin (SNS-595)] | 0.214 | 2.44 | 0.23 | 2.29
8 | CC(NCCc1ccc(O)cc1)C(O)c1ccc(O)cc1 (configuration not stated) [Ritodrine HCl] | -0.557 | -0.473 | 0.259 | -0.0912
9 | OCCN1C[C@H](O)[C@@H](O)[C@H](O)[C@H]1CO [Miglitol] | -0.567 | -0.344 | 0.0771 | 1.23
10 | CCC(NC(C)C)C(O)c1ccc(O)c(O)c1 (configuration not stated) [Isoetharine Mesylate] | -0.244 | 0.167 | -0.0587 | 0.735
11 | N[C@@H](CSCCCO)C(=O)O [Fudosteine] | 0.084 | 0.955 | 0.606 | 1.81
12 | C[C@@H]1C[C@H]2[C@@H]3CCC4=CC(=O)C=C[C@]4(C)[C@@]3(F)[C@@H](O)C[C@]2(C)[C@@]1(O)C(=O)COP(=O)(O)O [Dexamethasone Sodium Phosphate] | 0.0488 | 1.39 | 0.457 | -0.159
13 | O=[N+]([O-])c1ccc(Nc2nc(N3CCOCC3)nc(N3CCOCC3)n2)cc1 | 0.114 | -0.982 | -1.57 | 2.48
14 | Cc1cc(C)nc(NS(=O)(=O)c2ccc(NC(=S)NC(=O)COc3ccc(Br)cc3Cl)cc2)n1 | -0.0947 | 0.76 | 1.6 | 0.377
15 | O=C(c1ccc(F)cc1)C1CCN(CCn2c(=O)[nH]c3ccccc3c2=O)CC1 [Ketanserin] | -0.159 | -0.25 | 0.426 | 0.224
16 | CC(CN(C)C)CN1c2ccccc2CCc2ccccc21 (configuration not stated) [Trimipramine Maleate] | -0.863 | -1.56 | -0.547 | -0.356
17 | CN(C)CC/C=C1/c2ccccc2COc2ccc(CC(=O)O)cc21 [Olopatadine HCl] | 0.424 | -0.0236 | -0.342 | -0.087
18 | Nc1ccc(O)c(C(=O)O)c1 [Mesalamine] | 0.933 | -0.771 | -0.662 | 0.0472
19 | CC[C@H](c1ccc(O)cc1)[C@@H](CC)c1ccc(O)cc1 [Hexestrol] | 1.83 | -0.0682 | -0.38 | 0.599
20 | O=C(c1ccc(Nc2nccc(-c3cc4ccccc4s3)n2)cc1)N1CCC(N2CCCC2)CC1 [IKK-16 (IKK Inhibitor VII)] | -11.8 | -3.71 | -0.105 | -0.725

Row | SMILES | nucleus area z-score [1] | total neurite length per nucleus (z-score) [2] | nucleus roundness z-score [3] | KCl-induced FOS+/EGR-1+ double-positive nuclei fraction z-score [4]
21 | Nc1ncn([C@@H]2O[C@H](CO)[C@@H](O)[C@H]2O)c(=O)n1 [Azacitidine] | -0.211 | 0.667 | 0.71 | 0.301
22 | C=C[C@]1(C)C[C@@H](OC(=O)CS[C@@H]2C[C@H]3CC[C@@H](C2)N3C)[C@]2(C)[C@H](C)CC[C@]3(CCC(=O)[C@H]32)[C@@H](C)[C@@H]1O [Retapamulin] | -0.586 | 0.489 | 0.102 | 1.01
23 | COc1cc(/C=C/C(=O)N2CCN(CC(=O)N3CCCC3)CC2)cc(OC)c1OC [Cinepazide maleate] | 1.87 | 0.0176 | 0.536 | 0.0488
24 | COc1ccc(CC2c3cc(OC)c(OC)cc3CC[N+]2(C)CCC(=O)OCCCCCOC(=O)CC[N+]2(C)CCc3cc(OC)c(OC)cc3C2Cc2ccc(OC)c(OC)c2)cc1OC (configuration not stated) [Atracurium Besylate] | 0.652 | 0.36 | 1.61 | 0.782
25 | O=C(Oc1cccc(F)c1OC(=O)c1cccc(O)c1)c1cccc(O)c1 | -4.14 | -2.44 | -2.66 | -1.06
26 | Cc1ccc([N+](=O)[O-])cc1S(=O)(=O)N(C)/N=C/c1cnc2ccc(Br)cn12 | -6.41 | -2.64 | -4.52 | -0.949
27 | CN(C)CCCn1cc(C2=C(c3c[nH]c4ccccc34)C(=O)NC2=O)c2ccccc21 | -2.51 | -1.57 | -1.7 | -0.63
28 | c1cc(-c2cnn3cc(-c4ccc(OCCN5CCCCC5)cc4)cnc23)ccn1 [Dorsomorphin 2HCl] | 1.35 | -0.649 | -3.46 | -0.665
29 | NCc1c[nH]c(=S)n1[C@H]1CCc2c(F)cc(F)cc2C1 [Nepicastat (SYN-117) HCl] | -0.289 | -1.4 | -0.97 | -0.0378
30 | COc1cc(/C=C/C(=O)O)ccc1O [Ferulic Acid] | -0.743 | 0.233 | 1.04 | 0.453
31 | CCc1c2c(nc3ccc(O)cc13)-c1cc3c(c(=O)n1C2)COC(=O)[C@]3(O)CC | -0.266 | -1.62 | -1.35 | -1.34
32 | C=CC(=O)N1C/C(=C\c2ccc([N+](=O)[O-])cc2)C(=O)/C(=C/c2ccc([N+](=O)[O-])cc2)C1 | -4.05 | -2.39 | -2.29 | 4.19
33 | Cc1ccccc1C(C(=O)NC1CCCCC1)N(C(=O)Cn1ccnc1C)c1cccc(F)c1 (configuration not stated) | -0.236 | -0.359 | -0.611 | -0.835
34 | COc1ccc(F)c(F)c1C(=O)c1cnc(NC2CCN(S(C)(=O)=O)CC2)nc1N | -4.99 | -2.51 | -0.948 | -2
35 | CC/C(=C(\c1ccccc1)c1ccc(OCCN(C)C)cc1)c1ccccc1 [Tamoxifen] | -5.78 | -2.87 | -3.47 | -1.44
36 | O=c1oc2c(O)c(O)cc3c(=O)oc4c(O)c(O)cc1c4c23 [Ellagic acid] | 0.608 | 0.79 | 0.358 | -0.143
37 | O=C(NOCC1CC1)c1ccc(F)c(F)c1Nc1ccc(I)cc1Cl | 1.59 | 1.25 | 0.662 | 1.47
38 | O=C(CCCCCCC(=O)Nc1ccc([C@H]2O[C@@H](CSc3nc(-c4ccccc4)c(-c4ccccc4)o3)C[C@@H](c3ccc(CO)cc3)O2)cc1)NO [Tubacin] | -0.35 | 0.826 | 0.988 | 0.424
39 | CN(NC(=O)CC(=O)NN(C)C(=S)c1ccccc1)C(=S)c1ccccc1 [Elesclomol (STA-4783)] | 0.101 | 1.67 | 0.425 | 0.0282
40 | CCc1ccc(CCOc2ccc(CC3SC(=O)NC3=O)cc2)nc1 (configuration not stated) [Pioglitazone HCl] | 1.11 | -1.03 | -0.0291 | 0.0569

Row | SMILES | nucleus area z-score [1] | total neurite length per nucleus (z-score) [2] | nucleus roundness z-score [3] | KCl-induced FOS+/EGR-1+ double-positive nuclei fraction z-score [4]
41 | CCOC(CN1CCN(CC(C)C(=O)c2ccccc2)CC1)c1ccccc1 (configuration not stated) [Eprazinone 2HCl] | 0.0246 | 1.12 | 1.73 | 0.959
42 | CC(C)(Oc1ccc(Cl)cc1)C(=O)OCCOC(=O)c1cccnc1 [Etofibrate] | -0.598 | 0.334 | 0.144 | 0.0819
43 | CCC[C@H](Nc1nc(-c2ccc(NC(=O)NCC)c(OC)c2)ncc1C)c1cccnc1 [CYT997 (Lexibulin)] | -11 | -6 | -0.308 | -0.931
44 | CC(C)Cc1ccc(C(C)C(=O)O)cc1 (configuration not stated) [Ibuprofen] | -0.0447 | 0.376 | 0.697 | 0.807
45 | C[C@]1(c2nc3c(C(N)=O)cccc3[nH]2)CCCN1 [Veliparib (ABT-888)] | 0.406 | 1.04 | 0.109 | 2.11
46 | Cc1ccc(Sc2ccccc2N2CCNCC2)c(C)c1 | -2.12 | -0.779 | -1.08 | 1.05
47 | Cc1cc(O)c2c(c1)C(=O)c1cccc(O)c1C2=O [Chrysophanic Acid] | 0.39 | 0.102 | 0.381 | -0.334
48 | O=C([C@@H](Cc1cccc(C(F)(F)F)c1)NS(=O)(=O)c1cc(F)c2c(c1)CCNC2)N1CCCC1 | 1.45 | 0.493 | 1.31 | 1.47
49 | CO[C@H]1C[C@@H]2CC[C@@H](C)[C@@](O)(O2)C(=O)C(=O)N2CCCC[C@H]2C(=O)O[C@H]([C@H](C)C[C@@H]2CC[C@H](n3cnnn3)[C@H](OC)C2)CC(=O)[C@H](C)/C=C(\C)[C@@H](O)[C@@H](OC)C(=O)[C@H](C)C[C@H](C)/C=C/C=C/C=C/1C [Zotarolimus(ABT-578)] | -3.13 | -0.926 | -3.99 | -0.918
50 | Clc1ccc(COC(Cn2ccnc2)c2ccc(Cl)cc2Cl)c(Cl)c1 (configuration not stated) [Miconazole] | -0.707 | -0.459 | -0.764 | -0.74
51 | O=c1ncccn1[C@@H]1O[C@H](CO)[C@@H](O)[C@H]1O [Zebularine] | -0.107 | 1.74 | 0.482 | 0.302
52 | CO[C@@H](C)Cn1c(=O)n(C)c2cnc3ccc(-c4cncc(C(C)(C)O)c4)cc3c21 | -7.22 | -3.11 | -3.77 | -1.15
53 | CN1CCCN(C(=O)c2cccc(-c3ccc(/C=C4/C(=O)Nc5ccc(Cl)cc54)o3)c2)CC1 | -17.8 | -6.55 | -6.21 | 1.71
54 | CO[C@@H](C(=O)N1Cc2[nH]nc(NC(=O)c3ccc(N4CCN(C)CC4)cc3)c2C1)c1ccccc1 | 0.254 | -0.00667 | -0.768 | -0.569
55 | CN(C)C(=N)NC(=N)N [Metformin HCl] | 0.2 | 0.292 | 0.355 | -0.145
56 | COc1cc2ncnc(Nc3ccc(Cl)cc3F)c2cc1OC | 0.168 | 0.268 | 0.394 | -0.517
57 | Oc1cccc(-c2nc(N3CCOCC3)c3oc4ncccc4c3n2)c1 | -0.604 | 0.293 | 0.399 | 0.221
58 | NC(=O)c1cccc2cn(-c3ccc([C@@H]4CCCNC4)cc3)nc12 [Niraparib (MK-4827) tosylate] | 0.8 | 0.251 | 1.18 | 0.496

Some values from above:
CCOC(CN1CCN(CC(C)C(=O)c2ccccc2)CC1)c1ccccc1 (configuration not stated) [Eprazinone 2HCl] | nucleus area z-score [1]: 0.0246
Cc1ccc(Sc2ccccc2N2CCNCC2)c(C)c1 | nucleus roundness z-score [3]: -1.08
